Results taken from the supplement of paper PMC10849652.
This is one part of the list. Residues, ends and D or L forms follow the SMILES beside them. *: point of attachment. Cbz = O=C(OCc1ccccc1)*

Chains of the proteins cited; added tags and fusions are not shown. Lines headed by an entry give the natural chain unless they say otherwise; changes in a name come on top.
UniProt Q9UJU6: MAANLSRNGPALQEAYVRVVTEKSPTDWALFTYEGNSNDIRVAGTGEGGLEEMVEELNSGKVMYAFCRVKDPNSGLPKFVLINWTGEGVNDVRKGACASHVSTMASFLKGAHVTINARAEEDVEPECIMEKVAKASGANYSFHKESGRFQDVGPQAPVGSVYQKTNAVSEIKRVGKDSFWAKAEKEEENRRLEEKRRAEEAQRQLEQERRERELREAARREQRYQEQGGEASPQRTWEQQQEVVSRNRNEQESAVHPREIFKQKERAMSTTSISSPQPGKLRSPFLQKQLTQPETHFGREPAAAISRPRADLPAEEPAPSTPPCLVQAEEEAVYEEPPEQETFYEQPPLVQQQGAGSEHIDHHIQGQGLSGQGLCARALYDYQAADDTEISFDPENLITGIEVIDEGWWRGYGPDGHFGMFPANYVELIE
UniProt Q9BTE1, whole entry, looked up: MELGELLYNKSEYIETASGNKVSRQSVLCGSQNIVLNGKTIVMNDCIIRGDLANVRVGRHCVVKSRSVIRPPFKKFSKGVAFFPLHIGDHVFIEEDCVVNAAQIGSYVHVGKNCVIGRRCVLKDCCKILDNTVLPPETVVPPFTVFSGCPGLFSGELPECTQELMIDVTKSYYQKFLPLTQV
UniProt Q86T65: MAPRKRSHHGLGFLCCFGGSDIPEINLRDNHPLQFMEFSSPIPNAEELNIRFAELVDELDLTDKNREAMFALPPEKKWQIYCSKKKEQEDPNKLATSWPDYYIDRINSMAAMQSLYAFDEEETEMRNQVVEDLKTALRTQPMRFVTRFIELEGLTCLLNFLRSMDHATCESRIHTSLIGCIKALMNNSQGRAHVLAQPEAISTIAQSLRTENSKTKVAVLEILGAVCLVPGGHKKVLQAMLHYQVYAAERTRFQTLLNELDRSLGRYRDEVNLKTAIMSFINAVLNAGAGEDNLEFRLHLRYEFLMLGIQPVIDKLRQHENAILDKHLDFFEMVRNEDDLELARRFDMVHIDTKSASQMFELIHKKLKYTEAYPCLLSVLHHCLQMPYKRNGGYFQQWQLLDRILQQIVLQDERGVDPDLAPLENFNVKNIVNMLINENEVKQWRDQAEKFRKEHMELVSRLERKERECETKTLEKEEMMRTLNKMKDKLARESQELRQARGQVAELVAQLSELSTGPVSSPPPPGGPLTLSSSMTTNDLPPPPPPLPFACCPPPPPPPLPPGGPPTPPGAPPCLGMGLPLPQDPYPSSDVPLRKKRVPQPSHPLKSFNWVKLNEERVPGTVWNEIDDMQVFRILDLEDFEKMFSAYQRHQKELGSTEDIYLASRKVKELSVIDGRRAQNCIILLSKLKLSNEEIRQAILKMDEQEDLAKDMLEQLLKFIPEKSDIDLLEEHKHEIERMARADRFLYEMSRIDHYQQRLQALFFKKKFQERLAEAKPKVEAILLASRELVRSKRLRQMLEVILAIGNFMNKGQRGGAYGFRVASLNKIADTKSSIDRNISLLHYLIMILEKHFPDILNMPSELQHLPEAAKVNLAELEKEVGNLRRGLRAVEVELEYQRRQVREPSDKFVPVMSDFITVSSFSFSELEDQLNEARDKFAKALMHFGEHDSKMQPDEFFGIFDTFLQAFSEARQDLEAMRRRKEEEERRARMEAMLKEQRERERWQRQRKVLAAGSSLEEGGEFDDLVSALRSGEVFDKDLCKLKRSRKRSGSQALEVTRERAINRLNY
UniProt Q9H773: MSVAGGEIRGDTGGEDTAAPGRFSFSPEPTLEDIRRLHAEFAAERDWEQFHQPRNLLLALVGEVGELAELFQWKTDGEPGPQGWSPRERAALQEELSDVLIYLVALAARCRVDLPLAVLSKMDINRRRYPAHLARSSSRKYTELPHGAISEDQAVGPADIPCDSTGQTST
UniProt Q9NV06: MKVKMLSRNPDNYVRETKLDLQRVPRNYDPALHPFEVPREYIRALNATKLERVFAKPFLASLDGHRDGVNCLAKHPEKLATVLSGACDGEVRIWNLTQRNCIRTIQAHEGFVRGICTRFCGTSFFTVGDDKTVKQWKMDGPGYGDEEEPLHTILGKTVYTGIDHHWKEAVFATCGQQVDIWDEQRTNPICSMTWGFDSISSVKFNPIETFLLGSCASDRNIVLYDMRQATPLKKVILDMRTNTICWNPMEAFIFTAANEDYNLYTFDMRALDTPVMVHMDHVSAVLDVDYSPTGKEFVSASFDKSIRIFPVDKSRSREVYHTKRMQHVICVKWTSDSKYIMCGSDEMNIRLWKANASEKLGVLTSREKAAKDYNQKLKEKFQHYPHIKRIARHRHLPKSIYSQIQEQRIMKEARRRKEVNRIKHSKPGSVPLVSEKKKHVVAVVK
UniProt Q07973: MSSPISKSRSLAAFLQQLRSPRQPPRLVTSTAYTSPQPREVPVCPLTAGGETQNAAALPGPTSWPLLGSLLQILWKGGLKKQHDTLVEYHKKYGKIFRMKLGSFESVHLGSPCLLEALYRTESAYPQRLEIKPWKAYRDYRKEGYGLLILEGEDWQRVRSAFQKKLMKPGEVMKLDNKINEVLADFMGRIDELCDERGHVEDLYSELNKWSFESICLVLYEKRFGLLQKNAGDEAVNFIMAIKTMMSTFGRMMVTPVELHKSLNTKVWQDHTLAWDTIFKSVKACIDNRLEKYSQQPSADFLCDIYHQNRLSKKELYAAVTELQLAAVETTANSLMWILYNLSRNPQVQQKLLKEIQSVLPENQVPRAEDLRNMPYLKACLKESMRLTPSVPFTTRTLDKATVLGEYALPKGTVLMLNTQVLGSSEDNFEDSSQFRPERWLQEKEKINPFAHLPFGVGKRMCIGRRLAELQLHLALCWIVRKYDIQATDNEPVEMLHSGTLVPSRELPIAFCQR
UniProt Q96SQ9: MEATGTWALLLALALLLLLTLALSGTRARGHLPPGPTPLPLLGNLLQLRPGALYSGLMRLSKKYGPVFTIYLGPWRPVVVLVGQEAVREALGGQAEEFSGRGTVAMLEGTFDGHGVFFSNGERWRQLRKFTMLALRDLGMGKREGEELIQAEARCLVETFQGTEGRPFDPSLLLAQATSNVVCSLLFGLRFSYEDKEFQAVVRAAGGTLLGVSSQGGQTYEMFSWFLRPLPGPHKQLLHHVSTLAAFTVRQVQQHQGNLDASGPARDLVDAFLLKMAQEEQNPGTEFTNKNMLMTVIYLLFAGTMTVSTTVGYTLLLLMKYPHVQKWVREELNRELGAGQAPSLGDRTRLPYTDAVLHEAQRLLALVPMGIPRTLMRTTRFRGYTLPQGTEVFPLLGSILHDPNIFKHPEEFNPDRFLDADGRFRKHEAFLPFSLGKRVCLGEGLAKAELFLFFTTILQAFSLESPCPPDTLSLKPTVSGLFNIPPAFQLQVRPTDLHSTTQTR
UniProt Q8NBI2: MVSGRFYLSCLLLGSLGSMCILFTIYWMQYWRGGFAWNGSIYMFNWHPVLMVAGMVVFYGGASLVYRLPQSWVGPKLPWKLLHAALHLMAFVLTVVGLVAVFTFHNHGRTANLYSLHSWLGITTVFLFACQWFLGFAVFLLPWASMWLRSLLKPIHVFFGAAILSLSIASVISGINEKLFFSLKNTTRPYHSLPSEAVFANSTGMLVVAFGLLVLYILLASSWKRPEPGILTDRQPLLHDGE
UniProt P50461: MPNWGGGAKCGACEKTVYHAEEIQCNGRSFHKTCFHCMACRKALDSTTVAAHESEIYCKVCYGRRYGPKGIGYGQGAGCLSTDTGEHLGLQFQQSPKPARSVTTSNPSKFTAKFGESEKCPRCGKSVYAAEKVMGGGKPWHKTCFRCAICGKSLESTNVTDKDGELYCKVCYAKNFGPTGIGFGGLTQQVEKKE

Legend:
Assay in all cases: log2 fold change, soluble protein after heating vs DMSO (PISA); higher = thermal stabilisation; K562 cells, 10 uM, 30 min; active = over 0.2 and 3.5 SD of the protein, either way, in both replicates (recomputed)
IRAK-1-4 Inhibitor I = compound: C1COCCN1CCN2C3=CC=CC=C3N=C2NC(=O)C4=CC(=CC=C4)[N+](=O)[O-] [IRAK-1-4 Inhibitor I]
Method in brief: (§1)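 K562 cells at 2×10^6 cells/mL were exposed to 10 μM compound for 30 min, then aliquots were heated for 3 min across 48°C-58°C, pooled, and extracted in PBS containing 0.5% NP-40 at 4°C. The supernatant after 21,000xg for 90 min was taken as soluble protein and measured by TMTpro 16plex LC-MS/MS with channel sums equalised. Thermal stability is reported relative to control samples, with values from duplicates. Fold changes are given on a log2 scale.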

ibrutinib = compound: C=CC(=O)N1CCC[C@@H](n2nc(-c3ccc(Oc4ccccc4)cc3)c3c(N)ncnc32)C1 [ibrutinib]
Method in brief: as §1

[1] = compound: CC(=O)c1cnc2ccc(-c3cc(Cl)c(O)c(Cl)c3)nc2c1N[C@H]1CC[C@H](CN(C)C)CC1
Method in brief: as §1

ralimetinib = compound: CC(C)(C)Cn1c(N)nc2ccc(-c3[nH]c(C(C)(C)C)nc3-c3ccc(F)cc3)nc21 [ralimetinib]
Method in brief: as §1

[2] = compound: CC(C)(O)CC(=O)NCCn1ccc2ncnc(Nc3ccc(Oc4cccc(C(F)(F)F)c4)c(Cl)c3)c21
Method in brief: as §1

[3] = compound: CC(C)C1=C2N=C(C=C(N2N=C1)NCC3=CC=CC=C3)NCCCCCCN
Method in brief: as §1

[4] = compound: CC(C)C[C@@H](C=O)NC(=O)[C@H](CC(C)C)NC(=O)[C@H](CC(C)C)NC(=O)OCc1ccccc1
Method in brief: as §1

pinometostat = compound: CC(C)N(C[C@H]1O[C@@H](n2cnc3c(N)ncnc32)[C@H](O)[C@@H]1O)[C@H]1C[C@@H](CCc2nc3cc(C(C)(C)C)ccc3[nH]2)C1 [pinometostat]
Method in brief: as §1

[5] = compound: CC1=C(C2=C(C=C1)C(=O)C3=CC=CC=C3N2CCCN)C
Method in brief: as §1

[6] = compound: CC1=C(C=C(C=C1)NC(=O)C2=CC(=CC=C2)C(C)(C)C#N)NC3=CC4=C(C=C3)N=CN(C4=O)C
Method in brief: as §1

[7] = compound: CC1=C(C=C(C=C1)NC(=O)C2=CC(=CC=C2)N(C)C)NC(=O)C3=CC=C(C=C3)O
Method in brief: as §1

[8] = compound: CC1=CC=C(C=C1)SC2=C3C=C(SC3=CN=C2)C(=O)N
Method in brief: as §1

[9] = compound: CC1=NC(=CC=C1)C2=C(N=C(N2)C(C)(C)C)C3=CC4=NC=CN=C4C=C3
Method in brief: as §1

Nexturastat A = compound: CCCCN(Cc1ccc(C(=O)NO)cc1)C(=O)Nc1ccccc1 [Nexturastat A]
Method in brief: as §1

vemurafenib = compound: CCCS(=O)(=O)Nc1ccc(F)c(C(=O)c2c[nH]c3ncc(-c4ccc(Cl)cc4)cc23)c1F [vemurafenib]
Method in brief: as §1

[10] = compound: CCCS(=O)(=O)Nc1ccc(F)c(C(=O)c2c[nH]c3ncc(Cl)cc23)c1F
Method in brief: as §1

[11] = compound: CCCc1cc(C)[nH]c(=O)c1CNC(=O)c1cc(-c2ccnc(N3CCN(C)CC3)c2)cc2c1cnn2C(C)C
Method in brief: as §1

givinostat = compound: CCN(CC)Cc1ccc2cc(COC(=O)Nc3ccc(C(=O)NO)cc3)ccc2c1 [givinostat]
Method in brief: as §1

barasertib = compound: CCN(CCCOc1ccc2c(Nc3cc(CC(=O)Nc4cccc(F)c4)[nH]n3)ncnc2c1)CCOP(=O)(O)O [barasertib]
Method in brief: as §1

[12] = compound: CC1=C(C(CC(=O)N1)C2=CC=C(C=C2)C(F)(F)F)C(=O)NC3=C(C=C4C(=C3)C=NN4)F
Method in brief: as §1

Measured: log2 fold change

DBNL isoform 3 (UniProt Q9UJU6)
inactive: IRAK-1-4 Inhibitor I -0.075 | ibrutinib -0.122 | [1] 0.006 | ralimetinib -0.015 | [2] -0.132 | [3] -0.136 | [4] -0.007 | pinometostat -0.044 | [5] -0.066 | [6] -0.051 | [7] -0.019 | [8] 0.011 | [9] 0.113 | Nexturastat A -0.082 | vemurafenib 0.07 | [10] 0.1 | [11] -0.006 | givinostat 0.036 | barasertib 0.045

DCTN5 (UniProt Q9BTE1)
inactive: IRAK-1-4 Inhibitor I -0.041 | ibrutinib 0.026 | [1] -0.016 | ralimetinib -0.032 | [3] -0.038 | [4] 0.072 | pinometostat -0.006 | [12] -0.01 | [5] 0.02 | [6] -0.006 | [7] 0 | [8] 0.002 | [9] 0.004 | vemurafenib 0.047 | [10] 0.011 | [11] -0.02 | givinostat -0.147 | barasertib 0.027

DAAM2 (UniProt Q86T65)
inactive: IRAK-1-4 Inhibitor I 0.079 | ibrutinib 0.172 | ralimetinib 0.19 | [2] -0.113 | [3] 0.227 | [4] 0.12 | pinometostat -0.062 | [12] -0.246 | [7] -0.023 | [9] 0.038 | Nexturastat A -0.138 | givinostat -0.001 | barasertib 0.022

DCTPP1 (UniProt Q9H773)
inactive: IRAK-1-4 Inhibitor I 0.017 | ibrutinib 0.011 | [1] 0.03 | ralimetinib 0.062 | [2] -0.039 | [3] 0.075 | [4] -0.105 | pinometostat -0.067 | [5] 0.165 | [6] 0.003 | [7] -0.078 | [8] 0.009 | [9] 0.008 | Nexturastat A 0.067 | vemurafenib 0.126 | [10] -0.043 | [11] -0.009 | givinostat -0.019 | barasertib 0.059

DCAF13 (UniProt Q9NV06)
inactive: IRAK-1-4 Inhibitor I -0.079 | ibrutinib 0.019 | [1] 0.101 | ralimetinib 0.077 | [2] 0.032 | [3] -0.078 | [4] 0.165 | pinometostat 0.263 | [5] -0.33 | [6] -0.038 | [7] 0.007 | [8] -0.123 | [9] -0.067 | Nexturastat A 0.205 | vemurafenib -0.117 | [10] -0.062 | [11] 0.089 | givinostat 0.017 | barasertib -0.084

CYP24A1 (UniProt Q07973)
inactive: IRAK-1-4 Inhibitor I -0.162 | ibrutinib -0.044 | [1] 0.187 | ralimetinib 0.412 | [3] 0.069 | [4] 0.31 | pinometostat 0.276 | [5] -0.089 | [7] 0.051 | [8] -0.039 | [9] -0.306 | vemurafenib -0.198 | [10] -0.057 | [11] -0.183 | givinostat 0.233 | barasertib -0.146

CYP2S1 isoform 2 (UniProt Q96SQ9)
inactive: IRAK-1-4 Inhibitor I -0.044 | ibrutinib -0.302 | [1] -0.032 | ralimetinib -0.132 | [3] 0 | [4] 0.044 | pinometostat -0.274 | [6] -0.057 | [7] -0.006 | [9] 0.1 | [11] -0.016 | givinostat -0.008 | barasertib 0.051

CYB561A3 isoform 2 (UniProt Q8NBI2)
inactive: IRAK-1-4 Inhibitor I 0.024 | ibrutinib 0.014 | [1] 0.033 | ralimetinib -0.026 | [3] -0.164 | [4] -0.019 | pinometostat -0.054 | [5] -0.027 | [6] 0.051 | [7] 0.025 | [8] -0.074 | [9] 0.02 | [10] 0.059 | [11] -0.086 | givinostat 0.033 | barasertib -0.057

CSRP3 (UniProt P50461)
inactive: IRAK-1-4 Inhibitor I 0.095 | ibrutinib 0.067 | [1] -0.018 | ralimetinib 0.078 | [3] 0.04 | [4] -0.242 | pinometostat -0.014 | [12] 0.071 | [5] -0.094 | [6] -0.051 | [7] 0.008 | [8] -0.041 | [9] 0.027 | vemurafenib -0.111 | [10] -0.002 | [11] -0.238 | givinostat 0.006 | barasertib 0.14
